In this test the target is T1, ETV7 (UniProt Q9Y603).
T1 sequence: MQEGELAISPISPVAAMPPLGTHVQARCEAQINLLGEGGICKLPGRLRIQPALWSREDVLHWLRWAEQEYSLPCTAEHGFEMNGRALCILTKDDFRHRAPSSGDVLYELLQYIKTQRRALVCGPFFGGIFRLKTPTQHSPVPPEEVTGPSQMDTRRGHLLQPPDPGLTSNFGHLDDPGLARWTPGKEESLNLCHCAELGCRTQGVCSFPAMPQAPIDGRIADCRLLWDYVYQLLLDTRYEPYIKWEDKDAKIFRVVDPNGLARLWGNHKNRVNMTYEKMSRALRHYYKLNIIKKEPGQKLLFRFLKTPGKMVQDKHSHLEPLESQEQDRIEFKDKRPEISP
In words: co-IP.

By UniProt entry, the sequences of proteins in these tests, tags left out.
UniProt P40763: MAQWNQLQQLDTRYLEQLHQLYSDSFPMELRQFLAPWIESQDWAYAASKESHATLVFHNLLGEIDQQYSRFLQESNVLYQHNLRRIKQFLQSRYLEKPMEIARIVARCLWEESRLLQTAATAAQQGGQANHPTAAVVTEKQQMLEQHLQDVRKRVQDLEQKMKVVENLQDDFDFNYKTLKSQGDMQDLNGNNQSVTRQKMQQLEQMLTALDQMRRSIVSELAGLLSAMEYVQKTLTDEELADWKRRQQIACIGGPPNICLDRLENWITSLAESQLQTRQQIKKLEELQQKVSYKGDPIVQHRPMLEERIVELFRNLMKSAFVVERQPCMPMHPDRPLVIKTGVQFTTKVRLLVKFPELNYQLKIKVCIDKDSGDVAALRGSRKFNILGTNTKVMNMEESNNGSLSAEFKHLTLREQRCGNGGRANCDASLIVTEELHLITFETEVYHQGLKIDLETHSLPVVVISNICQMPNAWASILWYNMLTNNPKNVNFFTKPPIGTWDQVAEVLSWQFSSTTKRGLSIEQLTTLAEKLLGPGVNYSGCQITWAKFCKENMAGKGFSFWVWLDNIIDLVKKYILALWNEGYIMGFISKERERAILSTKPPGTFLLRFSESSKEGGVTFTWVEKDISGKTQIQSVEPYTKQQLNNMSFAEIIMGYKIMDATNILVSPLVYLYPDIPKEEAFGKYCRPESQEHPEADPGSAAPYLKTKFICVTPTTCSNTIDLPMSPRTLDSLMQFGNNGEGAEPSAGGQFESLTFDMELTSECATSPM

These are yes or no findings as the source states them, for the method shown. In cells and extracts the contact can be indirect.

Take “phosphorylated STAT3 (from UniProt P40763 1-770)”: the binding result is listed as “no binding”.

(Values after paper doi:10.1101/2022.09.06.506542.)
